## Library screen at single concentrations

Amino acid sequences for entries named in this document (tags omitted).
UniProt P9WPC5, whole entry: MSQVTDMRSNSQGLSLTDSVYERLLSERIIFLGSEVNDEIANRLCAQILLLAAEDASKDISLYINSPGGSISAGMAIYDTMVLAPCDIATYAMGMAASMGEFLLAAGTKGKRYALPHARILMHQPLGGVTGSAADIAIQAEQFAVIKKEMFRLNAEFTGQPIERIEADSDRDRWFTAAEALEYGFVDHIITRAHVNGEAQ
UniProt P9WPC3, whole entry partner: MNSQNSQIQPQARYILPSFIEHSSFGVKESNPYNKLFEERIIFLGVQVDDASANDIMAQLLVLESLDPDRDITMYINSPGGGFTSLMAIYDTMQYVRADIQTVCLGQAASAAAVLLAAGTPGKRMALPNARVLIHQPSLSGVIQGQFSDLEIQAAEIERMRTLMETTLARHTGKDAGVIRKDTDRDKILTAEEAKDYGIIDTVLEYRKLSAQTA
UniProt I6X8D2, whole entry: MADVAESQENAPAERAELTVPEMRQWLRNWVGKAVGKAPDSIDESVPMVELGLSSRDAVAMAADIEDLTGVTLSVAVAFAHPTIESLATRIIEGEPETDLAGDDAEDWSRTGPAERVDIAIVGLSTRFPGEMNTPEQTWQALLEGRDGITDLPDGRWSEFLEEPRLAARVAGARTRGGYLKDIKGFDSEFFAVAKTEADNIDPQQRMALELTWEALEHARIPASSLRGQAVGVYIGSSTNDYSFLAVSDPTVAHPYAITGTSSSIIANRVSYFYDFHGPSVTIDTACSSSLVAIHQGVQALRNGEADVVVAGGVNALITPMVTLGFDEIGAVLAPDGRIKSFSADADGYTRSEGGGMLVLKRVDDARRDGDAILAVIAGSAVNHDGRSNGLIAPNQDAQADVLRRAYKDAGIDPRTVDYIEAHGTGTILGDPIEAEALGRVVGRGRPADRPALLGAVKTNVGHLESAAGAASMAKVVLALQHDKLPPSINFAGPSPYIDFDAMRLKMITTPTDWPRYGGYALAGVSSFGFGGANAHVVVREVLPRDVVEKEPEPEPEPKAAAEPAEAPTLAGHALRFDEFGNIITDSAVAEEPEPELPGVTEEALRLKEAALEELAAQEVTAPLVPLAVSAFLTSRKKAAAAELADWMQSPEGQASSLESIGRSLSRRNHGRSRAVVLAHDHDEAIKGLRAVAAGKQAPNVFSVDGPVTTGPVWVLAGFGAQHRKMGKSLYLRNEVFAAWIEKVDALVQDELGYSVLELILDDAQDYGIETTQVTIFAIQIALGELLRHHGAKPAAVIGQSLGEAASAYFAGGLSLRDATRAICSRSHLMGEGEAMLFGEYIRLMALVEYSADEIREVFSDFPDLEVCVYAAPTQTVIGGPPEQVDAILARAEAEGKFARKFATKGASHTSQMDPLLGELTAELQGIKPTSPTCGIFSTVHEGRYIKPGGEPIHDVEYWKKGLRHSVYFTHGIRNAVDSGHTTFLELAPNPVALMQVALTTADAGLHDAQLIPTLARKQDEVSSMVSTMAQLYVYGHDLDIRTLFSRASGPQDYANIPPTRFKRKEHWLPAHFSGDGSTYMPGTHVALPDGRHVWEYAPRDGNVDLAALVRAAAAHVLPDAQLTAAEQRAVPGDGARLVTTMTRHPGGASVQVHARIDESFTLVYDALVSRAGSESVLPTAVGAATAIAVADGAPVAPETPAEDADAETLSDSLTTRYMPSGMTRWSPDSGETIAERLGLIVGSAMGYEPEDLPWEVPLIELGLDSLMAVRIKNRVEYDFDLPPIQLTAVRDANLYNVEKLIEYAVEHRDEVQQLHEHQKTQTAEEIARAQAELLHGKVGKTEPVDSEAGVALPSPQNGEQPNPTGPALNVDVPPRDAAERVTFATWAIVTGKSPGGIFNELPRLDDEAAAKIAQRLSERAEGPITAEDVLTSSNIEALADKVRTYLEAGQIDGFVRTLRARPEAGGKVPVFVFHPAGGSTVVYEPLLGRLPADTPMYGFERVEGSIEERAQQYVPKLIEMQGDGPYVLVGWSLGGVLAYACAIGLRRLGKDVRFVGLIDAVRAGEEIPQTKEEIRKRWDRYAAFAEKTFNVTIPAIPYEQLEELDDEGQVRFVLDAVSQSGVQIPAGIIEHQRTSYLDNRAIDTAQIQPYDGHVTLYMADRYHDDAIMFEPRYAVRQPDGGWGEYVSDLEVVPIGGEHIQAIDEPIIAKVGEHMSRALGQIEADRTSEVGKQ

A: 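Cell assay of Leishmania donovani living inside macrophages; the read-out is not stated. Compounds at 30 µM. The record gives no direction; compounds that gave an IC50 in retests scored well above the rest, so higher reads as stronger inhibition. Size under these conditions: about 69,000 compounds, about 1,000 of them at 50% or above in at least one test.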
B: 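Assay of Toxoplasma gondii numbers, read through their beta-galactosidase reporter with a colour substrate. Tested at 10 µM. The record gives no direction; the compounds picked for IC50 retests had high values, so higher reads as fewer parasites. About 67,000 compounds were tested under these conditions; 0.38% (about 260) showed 50% or more at least once.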
C: 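ClpP1P2, Mycobacterium tuberculosis (UniProt P9WPC5 and UniProt P9WPC3). Protease assay of ClpP1P2, read by the AMC dye that it sets free. Tested at 50 µM. Higher reads as stronger inhibition, judged from the few compounds that gave an IC50. Most other retested compounds had strongly negative values. Size under these conditions: about 69,000 compounds, about 10 of them at 50% or above in at least one test.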
D: 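Whole-parasite assay of Trypanosoma brucei over 72 hours; the read-out is not stated. Tested at 30 µM. Higher reads as stronger inhibition (inferred: compounds with an IC50 in retests scored well above the rest). Values scatter widely below zero; nearly all retest evidence comes from the higher of the two concentrations used. About 64,000 compounds were tested under these conditions; 1.5% (about 940) showed 50% or more at least once.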
E: 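Polyketide synthase Pks13, Mycobacterium tuberculosis (UniProt I6X8D2). Enzyme assay of the thioesterase domain of polyketide synthase 13; the read-out is not stated. Concentration: 30 µM. The record gives no direction; the compounds picked for IC50 retests had high values, so higher reads as stronger inhibition. Of about 67,000 compounds tested this way, about 300 (0.46%) reached 50% or more in at least one test.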

The filed quantity is “Percent Effect” (%).
The record does not define 0% and 100%; most values in the screen are far below 50% and negative numbers occur (in some assays of this library far below -100).
Compounds were drawn at random from those tested, without regard to their results.
Two or more numbers in one place are separate tests of the same structure; such repeats can differ widely.

CCC(C)Oc1cc(C(=O)Nc2nccs2)ccn1 (stereo not drawn) read A: 27.08%; C: -3.481%; D: 3.862%; E: -27.24%. Result for CC(C)NC(=O)[C@@H]1C[C@@H]2CCN(Cc3ccoc3)C[C@H]2O1 was C: 6.807%; E: -9.351%. Result for Cc1noc(C)c1C(=O)NCC(C)N(C)C (stereo not drawn) was A: -9.615%; B: 1.4%; C: 5.223%; D: -41.96%; E: -8.761%. For CCCOCC1CCN(C(=O)Cn2cccc(OC)c2=O)C1 (stereo not drawn) the result was A: -11.84%; B: -3.686%; C: -7.951%; D: -24.74%; E: -3.326%.

Brc1cccnc1OC1CCNCC1.Cl read A: -8.327%; B: -19.76%; D: -18.95%. With O=C(NCCNC1CCCC1)c1cccs1 the screen gave A: -2.075%; B: 6.42%; C: -7.007%; D: -13.01%; E: 11.04%. With Cc1csc(CNCc2c(C)nn(C)c2N2CCOCC2)n1 the screen gave A: -1.64%; B: -26.69%; C: -9.768%; D: 14.49%; E: -21.62%. O=C(Cc1n[nH]c2ccccc12)N1CCCC1Cn1cccn1 (stereo not drawn) gave A: 31.67%; B: -12.63%; C: -18.56%; D: 6.387%; E: -12.61%.

Result for COCCOc1ccc(NC(=O)N(CCCO)CC(C)(C)C)cn1 was A: -13.87%; B: -8.135%; C: -6.821%; D: -1.858%; E: -10.11%. CN1CCC(c2n[nH]c(=O)n2-c2cccc(Cl)c2)CC1 gave A: 6.222%; B: -0.6534%; C: 8.934%; D: -93.3%. Result for NC(=O)c1cc2c(nc1-c1ccc3c(c1)OCCO3)CCC2 was A: -21.36%; B: -31.62%; C: -27.96%; E: -8.068%. Result for CN(C(=O)CN1CCCC1c1cnn(C)c1)C1(C#N)CCCCC1 (stereo not drawn) was A: 5.804%; B: -0.5233%; C: -11.63%; D: -60.05%; E: -20.88%.

With COc1ccc(CN2CCOC3(CCCN(C(C)=O)C3)C2)cc1.O=C(O)C(F)(F)F (stereo not drawn) the screen gave A: 14.36%; B: 14.7%; D: -1.121%. With C1CCN(CCOC2CCNC2)CC1 (stereo not drawn) the screen gave C: -2.35%; E: -27.25%. With CC(=O)N1CC(c2ncn(C(C)C)n2)c2cc(C(=O)NC(C)C)ccc21 (stereo not drawn) the screen gave A: 11.09% and 8.262%; B: -4.853%; C: -5.187%; D: -55.26%; E: -36.42%. For CC(C)n1ccc(-c2cc(C(=O)N3CCN(C)CC3)c3ccccn23)n1.O=C(O)C(F)(F)F the result was A: 14.72%; B: 4.901%; D: -7.811%.

NC(=O)C1(c2cnccn2)CCCN1Cc1cc2ccccc2o1 (stereo not drawn) read A: 30.81%; B: 1.089%; C: 0.9658%; D: 17.36%; E: -65.46%. CCS(=O)(=O)N1CCOC(CCCc2ccccc2)C1 (stereo not drawn) read A: 22.66%; B: 3.059%; C: -16.69%; D: -8.698%; E: -5.016%. For CN(C)S(=O)(=O)N1CCC(C(O)c2ccc(Cl)cc2)CC1 (stereo not drawn) the result was A: 2.793%; B: 13.3%; C: -13.22%; D: -6.365%; E: -9.153%. Result for Cl.O=C(CN1CCCC1=O)N1CCC(O)(Cn2ccc3ccncc32)CC1 was A: 9.884%; B: 2.893%; D: 28.34%.

Result for CCc1noc(CCC(=O)N[C@@H]2CC[C@@H](n3ccnc3)[C@@H]2O)n1 was A: -3.173%; B: 15.76%; C: 2.557%; D: -3.86%; E: -5.08%. CCNc1ncc(CN2C[C@H](C3CC3)[C@@H](N)C2)cn1 read A: -5.581%; B: 5.978%; C: -9.518%; D: -11.45%; E: 3.414%. For Cc1cc(CN(C)C(=O)CNS(=O)(=O)c2cccs2)no1 the result was A: -0.5078%; B: -36.79%; C: 2.762%; D: -58.9%; E: 20.29%.

Once more, the final 3:

compound,A,B,C,D,E
CCc1noc(CCC(=O)N[C@@H]2CC[C@@H](n3ccnc3)[C@@H]2O)n1,-3.173%,15.76%,2.557%,-3.86%,-5.08%
CCNc1ncc(CN2C[C@H](C3CC3)[C@@H](N)C2)cn1,-5.581%,5.978%,-9.518%,-11.45%,3.414%
Cc1cc(CN(C)C(=O)CNS(=O)(=O)c2cccs2)no1,-0.5078%,-36.79%,2.762%,-58.9%,20.29%

Measurements from “University of Dundee, Small-Polar-MMV Screening Library” (2021), ChEMBL document CHEMBL3988442.